Measured values: article doi:10.1101/2022.02.28.482239
These are yes or no findings as the source states them, for the method shown. In cells and extracts the contact can be indirect. Some entries that bind do so weakly or less than the wild type. Where a sequence is shown, tags or fusion partners need not be part of it.

By UniProt entry, the sequences of proteins in these tests, tags left out.
UniProt O15078: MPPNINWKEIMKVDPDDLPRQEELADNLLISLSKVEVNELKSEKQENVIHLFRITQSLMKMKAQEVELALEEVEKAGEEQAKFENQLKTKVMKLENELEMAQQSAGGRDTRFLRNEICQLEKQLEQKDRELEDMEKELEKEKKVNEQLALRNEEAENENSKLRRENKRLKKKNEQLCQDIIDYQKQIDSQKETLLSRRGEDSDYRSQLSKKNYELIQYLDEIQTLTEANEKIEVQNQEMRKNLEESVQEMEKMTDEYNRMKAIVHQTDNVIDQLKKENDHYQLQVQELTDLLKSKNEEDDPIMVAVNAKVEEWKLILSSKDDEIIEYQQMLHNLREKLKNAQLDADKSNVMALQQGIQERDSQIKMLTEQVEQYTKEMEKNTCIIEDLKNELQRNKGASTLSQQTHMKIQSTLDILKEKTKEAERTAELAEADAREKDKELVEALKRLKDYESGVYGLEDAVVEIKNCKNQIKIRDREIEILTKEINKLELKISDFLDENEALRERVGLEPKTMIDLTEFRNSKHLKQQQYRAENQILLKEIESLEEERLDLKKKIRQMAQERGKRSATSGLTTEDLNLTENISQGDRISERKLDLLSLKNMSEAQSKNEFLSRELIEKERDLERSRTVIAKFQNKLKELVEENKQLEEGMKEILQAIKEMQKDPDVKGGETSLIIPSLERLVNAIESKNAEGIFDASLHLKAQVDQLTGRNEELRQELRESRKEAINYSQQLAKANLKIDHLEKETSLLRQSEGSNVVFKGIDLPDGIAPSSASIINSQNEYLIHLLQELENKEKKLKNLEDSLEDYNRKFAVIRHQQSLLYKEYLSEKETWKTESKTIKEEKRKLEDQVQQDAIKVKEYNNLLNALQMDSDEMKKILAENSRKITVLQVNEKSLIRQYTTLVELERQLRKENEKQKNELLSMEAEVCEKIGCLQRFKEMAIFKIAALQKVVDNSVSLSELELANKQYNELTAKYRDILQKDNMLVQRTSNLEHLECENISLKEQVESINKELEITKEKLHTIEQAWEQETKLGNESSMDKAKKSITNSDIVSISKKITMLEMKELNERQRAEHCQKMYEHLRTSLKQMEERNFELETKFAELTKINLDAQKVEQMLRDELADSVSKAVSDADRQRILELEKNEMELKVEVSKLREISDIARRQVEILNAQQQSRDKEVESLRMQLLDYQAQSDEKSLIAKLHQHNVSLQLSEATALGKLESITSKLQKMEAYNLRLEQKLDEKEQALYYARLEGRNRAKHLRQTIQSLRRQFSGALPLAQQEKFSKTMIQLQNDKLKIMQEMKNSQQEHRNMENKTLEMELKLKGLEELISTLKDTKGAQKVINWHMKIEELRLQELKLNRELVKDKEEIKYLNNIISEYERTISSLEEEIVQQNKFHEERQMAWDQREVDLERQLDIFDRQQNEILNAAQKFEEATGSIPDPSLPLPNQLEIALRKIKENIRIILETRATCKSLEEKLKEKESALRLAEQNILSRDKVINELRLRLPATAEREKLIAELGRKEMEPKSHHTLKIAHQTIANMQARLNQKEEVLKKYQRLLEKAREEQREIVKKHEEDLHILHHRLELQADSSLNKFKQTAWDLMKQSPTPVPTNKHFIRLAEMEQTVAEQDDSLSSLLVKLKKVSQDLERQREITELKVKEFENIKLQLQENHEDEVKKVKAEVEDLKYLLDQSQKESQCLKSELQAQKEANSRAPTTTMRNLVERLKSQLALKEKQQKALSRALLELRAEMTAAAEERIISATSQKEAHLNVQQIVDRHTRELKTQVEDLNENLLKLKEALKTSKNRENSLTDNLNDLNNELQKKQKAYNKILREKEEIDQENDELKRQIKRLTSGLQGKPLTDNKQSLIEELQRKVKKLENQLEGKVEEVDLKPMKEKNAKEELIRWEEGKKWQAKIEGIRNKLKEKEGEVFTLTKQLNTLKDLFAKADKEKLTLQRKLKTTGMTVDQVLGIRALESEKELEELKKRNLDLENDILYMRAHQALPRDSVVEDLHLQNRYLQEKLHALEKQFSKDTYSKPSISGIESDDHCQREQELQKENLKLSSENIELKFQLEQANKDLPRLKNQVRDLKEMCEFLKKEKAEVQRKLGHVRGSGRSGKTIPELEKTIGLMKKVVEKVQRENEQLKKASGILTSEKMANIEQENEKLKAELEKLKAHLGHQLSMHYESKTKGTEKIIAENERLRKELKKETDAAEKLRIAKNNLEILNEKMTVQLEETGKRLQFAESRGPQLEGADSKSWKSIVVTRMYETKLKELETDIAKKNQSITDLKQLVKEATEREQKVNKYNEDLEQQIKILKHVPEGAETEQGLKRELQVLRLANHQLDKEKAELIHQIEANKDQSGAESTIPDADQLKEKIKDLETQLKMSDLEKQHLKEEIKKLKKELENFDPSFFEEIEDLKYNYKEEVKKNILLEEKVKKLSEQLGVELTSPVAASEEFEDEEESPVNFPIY

Target: T1, wild-type C21orf2 tagged with a C-terminal turbo-GFP (tGFP) (human) (UniProt O43822)
T1 sequence: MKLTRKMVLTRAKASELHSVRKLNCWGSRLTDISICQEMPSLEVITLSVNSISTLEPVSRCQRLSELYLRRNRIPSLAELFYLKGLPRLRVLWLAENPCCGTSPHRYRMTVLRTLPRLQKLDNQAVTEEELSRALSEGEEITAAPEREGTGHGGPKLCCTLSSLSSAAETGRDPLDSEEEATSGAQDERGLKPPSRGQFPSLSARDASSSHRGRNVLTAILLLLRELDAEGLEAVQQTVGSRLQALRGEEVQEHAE
Test: co-IP

centrosomal protein of 290kDA (CEP290) (from UniProt O15078 1-2479)
binding: binds
